Data from paper PMC12462987.
Read-outs that look alike come from different tables or passages of the source. Results are given in words; binding and its absence hold for the method and conditions named. For part of these data: In cells and extracts the contact can be indirect. Some entries that bind do so weakly or less than the wild type.

The chains behind the UniProt entries cited, without tags or fusion partners. Where a name states a change or a piece, a line headed by the entry shows the natural chain unless it says otherwise. A line that says so, or that is headed by a name, gives the form on record, which may keep a tag or linker. Residues count along the entry.
UniProt P49736: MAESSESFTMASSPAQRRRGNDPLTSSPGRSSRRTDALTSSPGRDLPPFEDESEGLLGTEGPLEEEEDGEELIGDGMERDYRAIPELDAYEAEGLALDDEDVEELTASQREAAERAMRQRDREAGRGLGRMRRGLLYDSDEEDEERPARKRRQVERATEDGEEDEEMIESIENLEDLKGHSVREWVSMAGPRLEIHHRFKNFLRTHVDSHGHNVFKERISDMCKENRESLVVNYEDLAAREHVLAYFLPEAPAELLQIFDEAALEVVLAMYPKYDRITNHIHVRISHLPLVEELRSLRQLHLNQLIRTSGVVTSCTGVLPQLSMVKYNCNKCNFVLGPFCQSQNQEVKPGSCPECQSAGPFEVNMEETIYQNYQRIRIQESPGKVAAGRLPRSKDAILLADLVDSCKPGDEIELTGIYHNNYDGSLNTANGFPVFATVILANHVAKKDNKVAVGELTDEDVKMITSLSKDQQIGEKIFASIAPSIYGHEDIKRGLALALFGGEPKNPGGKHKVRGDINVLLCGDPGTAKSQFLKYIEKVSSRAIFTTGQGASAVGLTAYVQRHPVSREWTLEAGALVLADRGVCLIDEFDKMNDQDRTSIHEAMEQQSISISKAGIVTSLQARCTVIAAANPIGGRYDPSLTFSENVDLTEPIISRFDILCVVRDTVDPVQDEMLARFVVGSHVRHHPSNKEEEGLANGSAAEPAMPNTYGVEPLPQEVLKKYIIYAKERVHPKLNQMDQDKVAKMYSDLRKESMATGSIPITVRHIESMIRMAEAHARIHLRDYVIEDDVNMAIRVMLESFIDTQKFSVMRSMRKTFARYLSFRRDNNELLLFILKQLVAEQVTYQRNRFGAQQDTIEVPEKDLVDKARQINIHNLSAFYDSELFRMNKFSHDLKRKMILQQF
UniProt Q9Y5B9: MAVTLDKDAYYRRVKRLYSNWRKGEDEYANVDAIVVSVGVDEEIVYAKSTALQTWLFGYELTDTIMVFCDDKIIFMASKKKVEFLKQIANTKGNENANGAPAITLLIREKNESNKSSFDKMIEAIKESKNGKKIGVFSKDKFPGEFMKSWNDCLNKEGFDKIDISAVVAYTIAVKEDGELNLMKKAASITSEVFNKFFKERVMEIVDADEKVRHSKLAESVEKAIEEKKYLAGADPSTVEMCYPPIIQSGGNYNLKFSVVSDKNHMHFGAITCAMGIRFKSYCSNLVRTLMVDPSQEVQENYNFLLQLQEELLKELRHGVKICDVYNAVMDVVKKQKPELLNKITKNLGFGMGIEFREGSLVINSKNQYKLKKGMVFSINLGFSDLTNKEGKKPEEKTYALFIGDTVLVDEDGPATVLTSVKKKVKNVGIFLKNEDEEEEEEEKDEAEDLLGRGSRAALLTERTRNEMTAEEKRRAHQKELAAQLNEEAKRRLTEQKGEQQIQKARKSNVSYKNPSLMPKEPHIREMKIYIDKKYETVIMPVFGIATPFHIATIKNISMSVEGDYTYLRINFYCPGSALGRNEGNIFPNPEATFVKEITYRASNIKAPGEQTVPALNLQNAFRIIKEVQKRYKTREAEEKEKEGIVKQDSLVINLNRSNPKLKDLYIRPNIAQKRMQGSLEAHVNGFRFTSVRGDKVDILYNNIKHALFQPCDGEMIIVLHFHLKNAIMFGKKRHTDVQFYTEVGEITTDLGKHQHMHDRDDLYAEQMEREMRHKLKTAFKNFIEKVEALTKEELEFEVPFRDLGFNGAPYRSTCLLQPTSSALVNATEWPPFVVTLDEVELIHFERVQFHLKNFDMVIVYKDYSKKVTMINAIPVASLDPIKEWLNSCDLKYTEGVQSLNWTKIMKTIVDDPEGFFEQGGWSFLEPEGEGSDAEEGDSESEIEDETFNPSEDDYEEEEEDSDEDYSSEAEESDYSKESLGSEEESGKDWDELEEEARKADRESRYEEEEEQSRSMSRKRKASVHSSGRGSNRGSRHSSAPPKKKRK
UniProt Q08945: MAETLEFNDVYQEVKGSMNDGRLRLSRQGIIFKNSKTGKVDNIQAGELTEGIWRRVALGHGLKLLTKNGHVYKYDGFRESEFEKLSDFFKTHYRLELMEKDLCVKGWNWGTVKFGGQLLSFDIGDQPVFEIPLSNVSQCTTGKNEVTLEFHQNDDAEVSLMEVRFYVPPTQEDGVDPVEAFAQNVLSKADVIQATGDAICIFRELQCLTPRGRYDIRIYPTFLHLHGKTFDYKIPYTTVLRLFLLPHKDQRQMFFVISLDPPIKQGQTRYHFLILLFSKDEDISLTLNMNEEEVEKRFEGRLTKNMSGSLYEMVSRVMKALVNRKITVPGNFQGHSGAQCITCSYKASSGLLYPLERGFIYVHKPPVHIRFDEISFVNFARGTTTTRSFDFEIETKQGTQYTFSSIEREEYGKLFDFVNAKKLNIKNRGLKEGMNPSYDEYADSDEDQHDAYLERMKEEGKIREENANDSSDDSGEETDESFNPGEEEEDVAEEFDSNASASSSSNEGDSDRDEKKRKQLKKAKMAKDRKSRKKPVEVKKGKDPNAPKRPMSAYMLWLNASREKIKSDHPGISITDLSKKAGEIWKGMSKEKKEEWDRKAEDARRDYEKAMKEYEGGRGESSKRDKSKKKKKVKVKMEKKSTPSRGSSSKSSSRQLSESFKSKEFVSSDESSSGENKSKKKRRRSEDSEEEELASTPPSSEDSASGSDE
UniProt P43268: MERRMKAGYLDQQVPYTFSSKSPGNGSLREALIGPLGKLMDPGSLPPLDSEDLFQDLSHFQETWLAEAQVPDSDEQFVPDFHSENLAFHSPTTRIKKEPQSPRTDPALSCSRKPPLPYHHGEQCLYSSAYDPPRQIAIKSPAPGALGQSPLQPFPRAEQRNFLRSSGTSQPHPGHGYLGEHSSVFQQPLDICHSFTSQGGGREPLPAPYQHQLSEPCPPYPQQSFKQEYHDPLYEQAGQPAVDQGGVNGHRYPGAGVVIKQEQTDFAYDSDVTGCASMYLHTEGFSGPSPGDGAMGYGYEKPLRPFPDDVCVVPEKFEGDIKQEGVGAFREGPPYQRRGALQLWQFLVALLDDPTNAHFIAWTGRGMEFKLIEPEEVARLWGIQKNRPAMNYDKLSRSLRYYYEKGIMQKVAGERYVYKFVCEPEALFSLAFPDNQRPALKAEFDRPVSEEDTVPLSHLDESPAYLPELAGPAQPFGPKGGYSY
Flag-tagged ETV4-ΔN (N-terminal deletion, Δ1-164aa): residues 165-484 of P43268
Flag-tagged ETV4-ΔDBD (deletion of the DNA binding domain, 337-430 aa) (P43268, form named): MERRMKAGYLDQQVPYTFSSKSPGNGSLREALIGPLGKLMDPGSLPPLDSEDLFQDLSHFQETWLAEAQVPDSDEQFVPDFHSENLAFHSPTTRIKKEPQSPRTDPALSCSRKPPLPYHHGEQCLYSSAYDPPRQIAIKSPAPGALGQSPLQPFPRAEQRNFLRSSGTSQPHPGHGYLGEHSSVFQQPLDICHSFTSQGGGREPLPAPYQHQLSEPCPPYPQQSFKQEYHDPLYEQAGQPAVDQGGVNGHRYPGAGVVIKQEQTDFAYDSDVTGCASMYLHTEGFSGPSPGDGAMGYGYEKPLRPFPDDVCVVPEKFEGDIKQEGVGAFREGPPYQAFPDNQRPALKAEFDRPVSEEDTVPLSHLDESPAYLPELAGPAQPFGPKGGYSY

Assays:
HA-tagged MCM2-FL = HA-tagged MCM2-FL (UniProt P49736); test: co-IP; HEK293T transfected with one tagged protein (Flag-ETV4 constructs, HA-MCM2 constructs or His-histone H3); anti-Flag, anti-HA or anti-His IP from RIPA lysate; immunoblot of the partner proteins of the lysate
[1] = biological target: SUPT16H (FACT subunit), endogenous (human (endogenous in A549, H1299, HEK293T)) (UniProt Q9Y5B9); test: co-IP; IP of the endogenous protein (anti-ETV4, anti-SSRP1 or anti-SUPT16H) from whole-cell RIPA lysates of A549 and H1299 cells, 4 °C overnight, Protein A/G Plus-Agarose, immunoblot; also cells synchronised by double thymidine block and released
[2] = biological target: SSRP1 (FACT subunit), endogenous (human (endogenous in A549, H1299, HEK293T)) (UniProt Q08945); test: as above
[3] = biological target: His-ETV4, purified protein (UniProt P43268); test: pull-down; purified proteins mixed with 10 µg His-ETV4 and Ni-NTA agarose; three washes; Western blot with anti-tag antibody; both purified
[4] = biological target: Flag-tagged ETV4-ΔN (N-terminal deletion, Δ1-164aa) (UniProt P43268); test: co-IP; HEK293T transfected with one tagged protein (Flag-ETV4 constructs, HA-MCM2 constructs or His-histone H3); anti-Flag, anti-HA or anti-His IP from RIPA lysate; immunoblot of the partner proteins of the lysate
[5] = biological target: Flag-tagged ETV4-ΔDBD (deletion of the DNA binding domain, 337-430 aa) (UniProt P43268); test: as above
[6] = biological target: Flag-tagged full-length ETV4 (FL, 1-484aa) (UniProt P43268); test: as above
[7] = biological target: ETV4 (ETS transcription factor ETV4), endogenous (human (endogenous in A549, H1299, HEK293T)) (UniProt P43268); test: co-IP; IP of endogenous ETV4 from chromatin-bound (Chrom.) proteins of A549 and H1299 cells, immunoblot
[8] = biological target: ETV4 (ETS transcription factor ETV4), endogenous (human (endogenous in A549, H1299, HEK293T)) (UniProt P43268); test: proximity ligation; Duolink in situ PLA in fixed A549 and H1299 cells with anti-ETV4 and anti-MCM2 or anti-SUPT16H; also with EdU co-staining of S phase cells
[9] = biological target: ETV4 (ETS transcription factor ETV4), endogenous (human (endogenous in A549, H1299, HEK293T)) (UniProt P43268); test: co-IP; IP of the endogenous protein (anti-ETV4, anti-SSRP1 or anti-SUPT16H) from whole-cell RIPA lysates of A549 and H1299 cells, 4 °C overnight, Protein A/G Plus-Agarose, immunoblot; also cells synchronised by double thymidine block and released
[10] = biological target: His-ETV4, purified protein (UniProt P43268); test: pull-down; 20 µg purified His-histone H3 or His-ETV4 on Ni-NTA His-bind resin incubated with RIPA lysates of A549 or H1299 cells, 4 °C, 6 h; Western blot; only the target purified
[11] = biological target: Flag-tagged ETV4-ΔN (N-terminal deletion, Δ1-164aa) (UniProt P43268); test: co-IP; HEK293T transfected with one tagged protein (Flag-ETV4 constructs, HA-MCM2 constructs or His-histone H3); anti-Flag, anti-HA or anti-His IP from RIPA lysate; immunoblot of the partner proteins of the lysate; remark: listed apart in the source
[12] = biological target: Flag-tagged full-length ETV4 (FL, 1-484aa) (UniProt P43268); test: as above; remark: listed apart in the source
[13] = biological target: ETV4 (ETS transcription factor ETV4), endogenous (human (endogenous in A549, H1299, HEK293T)) (UniProt P43268); test: co-IP; IP of the endogenous protein (anti-ETV4, anti-SSRP1 or anti-SUPT16H) from whole-cell RIPA lysates of A549 and H1299 cells, 4 °C overnight, Protein A/G Plus-Agarose, immunoblot; also cells synchronised by double thymidine block and released; remark: listed apart in the source

Measured: binding

ETV4 (ETS transcription factor ETV4), endogenous (from UniProt P43268 1-484)
binds: HA-tagged MCM2-FL | [1] | [2]

Flag-tag MCM2 (1-440aa), purified protein (from UniProt P49736 1-440) (domain or fragment)
binds: [3]

Flag-tag SSRP1, purified protein (from UniProt Q08945 1-709)
binds: [3]

GST-tag SUPT16H (1-510aa), purified protein (from UniProt Q9Y5B9 1-510) (domain or fragment)
binds: [3]

MCM2 (replicative helicase subunit), endogenous (from UniProt P49736 1-904)
binds: [4] | [5] | [6] | [7] | [8] | [9] | [10]

SSRP1 (FACT subunit), endogenous (from UniProt Q08945 1-709)
binds: HA-tagged MCM2-FL | [6] | [9] | [10]

SUPT16H (FACT subunit), endogenous (from UniProt Q9Y5B9 1-1047)
binds: HA-tagged MCM2-FL | [6] | [8] | [9] | [10]

B1: ORC1 (origin recognition complex subunit 1), endogenous (protein, UniProt Q13415 1-861)
chain: MAHYPTRLKTRKTYSWVGRPLLDRKLHYQTYREMCVKTEGCSTEIHIQIGQFVLIEGDDDENPYVAKLLELFEDDSDPPPKKRARVQWFVRFCEVPACKRHLLGRKPGAQEIFWYDYPACDSNINAETIIGLVRVIPLAPKDVVPTNLKNEKTLFVKLSWNEKKFRPLSSELFAELNKPQESAAKCQKPVRAKSKSAESPSWTPAEHVAKRIESRHSASKSRQTPTHPLTPRARKRLELGNLGNPQMSQQTSCASLDSPGRIKRKVAFSEITSPSKRSQPDKLQTLSPALKAPEKTRETGLSYTEDDKKASPEHRIILRTRIAASKTIDIREERTLTPISGGQRSSVVPSVILKPENIKKRDAKEAKAQNEATSTPHRIRRKSSVLTMNRIRQQLRFLGNSKSDQEEKEILPAAEISDSSSDEEEASTPPLPRRAPRTVSRNLRSSLKSSLHTLTKVPKKSLKPRTPRCAAPQIRSRSLAAQEPASVLEEARLRLHVSAVPESLPCREQEFQDIYNFVESKLLDHTGGCMYISGVPGTGKTATVHEVIRCLQQAAQANDVPPFQYIEVNGMKLTEPHQVYVQILQKLTGQKATANHAAELLAKQFCTRGSPQETTVLLVDELDLLWTHKQDIMYNLFDWPTHKEARLVVLAIANTMDLPERIMMNRVSSRLGLTRMCFQPYTYSQLQQILRSRLKHLKAFEDDAIQLVARKVAALSGDARRCLDICRRATEICEFSQQKPDSPGLVTIAHSMEAVDEMFSSSYITAIKNSSVLEQSFLRAILAEFRRSGLEEATFQQIYSQHVALCRMEGLPYPTMSETMAVCSHLGSCRLLLVEPSRNDLLLRVRLNVSQDDVLYALKDE
binds: [7] | [11] | [12] | [13]

B2: ORC6, endogenous (protein, UniProt Q9Y5N6 1-252)
chain: MGSELIGRLAPRLGLAEPDMLRKAEEYLRLSRVKCVGLSARTTETSSAVMCLDLAASWMKCPLDRAYLIKLSGLNKETYQSCLKSFECLLGLNSNIGIRDLAVQFSCIEAVNMASKILKSYESSLPQTQQVDLDLSRPLFTSAALLSACKILKLKVDKNKMVATSGVKKAIFDRLCKQLEKIGQQVDREPGDVATPPRKRKKIVVEAPAKEMEKVEEMPHKPQKDEDLTQDYEEWKRKILENAASAQKATAE
binds: [7] | [11] | [12] | [13]
